Experimental data published in patent publication US7572888B2, “Methods of assaying receptor activity and constructs useful in such methods” (Duke University, priority 1997, dated 2009).

Assay: in vivo
Conditions: mouse, whole blood, 10 mg/kg
Procedure: After 30 minutes or 2 hours, wild-type mice were killed and blood was collected in vials containing sodium fluoride and potassium-oxalate.

[1] = C57BL/6 x 129SvJ (wild-type of the βarr2 knockout line), sc

Structure (SMILES): CN1CC[C@]23c4c5ccc(O)c4O[C@H]2[C@@H](O)C=C[C@H]3[C@H]1C5 [morphine]
- concentration at 30 min [1]: 1500 ng/mL
- concentration at 2 h [1]: 83 ng/mL
- concentration at 2 h (C57BL/6 x 129SvJ (βarr2 knockout), subcutaneous): 93 ng/mL
